Out of some 340,000 compounds screened, about 170 (0.05%) were called active. The shares of active, inactive and inconclusive entries below differ from those in the screen. Calls follow the shape of the dose curve; as a rule, active = well fitted inhibition curve with a large enough effect in the signal ratio, with a control signal flat (not every such curve was filed as active); inconclusive = small, poorly fitted or top-dose-only effect, or effect the other way, or a change in a side signal; inactive = flat fitted curve, though single readings scatter; the % refers to the signal ratio. A potency beside an inconclusive call is a rough fit, not a confirmed value. Square brackets hold non-standard residues; d marks the D form. Peptide text beside a SMILES is read from it. * marks the point of attachment. ξ: configuration not given here. Cbz = O=C(OCc1ccccc1)*; ξP = O=C(O)C1CCCN1
assay: qHTS Assay to Find Inhibitors of Chronic Active B-Cell Receptor Signaling; details: ABC-DLBCL IkBa-CBG/CBR reporter, luminescence ratio (green luciferase fused to IkBa over red control in TMD8 lymphoma cells), 4 h; activity change, negative = inhibition: at 46.1 µM (top of the series);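 as to activity change, negative = inhibition: plate controls were basal doxycycline-induced cells for no effect and cells given 10 µM MG132 for full effect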
Outline: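 TMD8 human ABC-DLBCL cells with doxycycline-inducible IκBα–green luciferase fusion and unfused red luciferase, in 0.5% FBS medium; compounds up to 46 uM, 4 h at 37C. Green/red luminescence ratio, filter-overlap corrected, fitted to concentration-response curves.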
Potency is read from the fitted curve at half-maximal effect.

| Structure (SMILES) | activity change, negative = inhibition | Potency |
| --- | --- | --- |
| CC(NC(=O)CN1C(=O)c2ccccc2C1=O)c1ccccc1 (configuration not stated) | inconclusive: 5.14% | – |
| CCC(Oc1ccccc1C)C(=O)Nc1ccc(S(=O)(=O)Nc2cc(C)on2)cc1 (configuration not stated) | inconclusive: 4.72% | – |
| CC(C)Oc1cccc(-c2cc(C(=O)NN3CCOCC3)c3ccccc3n2)c1 | inactive: 5.27% | – |
| CCOC(=O)c1c(C=O)c(C)n(Cc2ccccc2)c1C | – | inconclusive: 25.9 µM [falling, partial curve, poor fit] |
| Cc1nn(C)c(C(=O)NC(=S)Nc2ccccc2Br)c1Cl | inconclusive: 13.1% | – |
| Brc1cc2c(cc1/C=N/Nc1nc3ccccc3s1)OCO2 | inconclusive: 23% | – |
| Cc1cccc(NC(=O)COC(=O)c2ccc(C)c(S(=O)(=O)N3CCCCC3)c2)c1 | inconclusive: -1.47% | – |
| CN1C(=O)C(C)(C)c2cc(S(=O)(=O)N3CCCC(C(=O)NCc4ccc(Cl)cc4)C3)ccc21 (configuration not stated) | inconclusive: 0.456% | – |
| O=C(Nc1nnc(SCC(=O)N2CCCc3ccccc32)s1)c1cccc2ccccc12 | inactive: 0.4% | – |
| CCCCC1C(C#N)=C(C)NC2=C1C(=O)CC(C)(C)C2 (configuration not stated) | – | inconclusive: 0.092 µM [falling, full curve, poor fit] |
| CC(=O)c1c(C)n(CC(=O)NCc2ccc3c(c2)OCO3)c2ccccc12 | inactive: 4.38% | – |
| CCCCCCn1c(=O)[nH]c2nc3cc(N)c(C)cc3nc2c1=O | inconclusive: 4.48% | – |
| NNC(=O)CN1CCCc2ccccc21 | inconclusive: -1.06% | – |
| O=C(COc1ccc(Br)cc1Br)NNC(=O)c1cccs1 | inconclusive: 7.89% | – |
| COc1ccc(C2OC(=O)CC2C(=O)NCc2ccc(Cl)cc2)cc1OC (configuration not stated) | inconclusive: 11.2% | – |
| Cc1ccc([N+](=O)[O-])cc1S(=O)(=O)NCCc1c(C)[nH]c2c(C)cccc12 | inactive: -1.84% | – |
| CC(Oc1ccccc1Cl)C(=O)N1CCOCC1 (configuration not stated) | inconclusive: 1.77% | – |
| CC12CC(NC(=O)N1c1cccc(C(=O)N3CCN(c4ccccc4F)CC3)c1)c1ccccc1O2 (configuration not stated) | – | inconclusive: 0.517 µM [rising, full curve, poor fit] |
| O=C(CCN1CCN(c2ccccc2)CC1)c1ccc(Br)cc1 | inconclusive: -1.52% | – |
| O=C(CNC(=O)c1ccc(Cl)cc1)OC1CCOC1=O (configuration not stated) | inactive: 1.07% | – |
| O=C(O)CCN(Cc1ccccc1)S(=O)(=O)c1ccc(Cl)cc1F | inactive: 4.96% | – |

Quoted at random: two compounds from above

| Structure (SMILES) | activity change, negative = inhibition | Potency |
| --- | --- | --- |
| CCCCC1C(C#N)=C(C)NC2=C1C(=O)CC(C)(C)C2 (configuration not stated) | – | inconclusive: 0.092 µM [falling, full curve, poor fit] |
| O=C(O)CCN(Cc1ccccc1)S(=O)(=O)c1ccc(Cl)cc1F | inactive: 4.96% | – |

Of the compounds above, 2 have an NH in an aromatic ring:

| Structure (SMILES) | activity change, negative = inhibition | Potency |
| --- | --- | --- |
| CCCCCCn1c(=O)[nH]c2nc3cc(N)c(C)cc3nc2c1=O | inconclusive: 4.48% | – |
| Cc1ccc([N+](=O)[O-])cc1S(=O)(=O)NCCc1c(C)[nH]c2c(C)cccc12 | inactive: -1.84% | – |

(next part)

| Structure (SMILES) | activity change, negative = inhibition | Potency |
| --- | --- | --- |
| CC(C)(C)n1nnnc1SCC(=O)Nc1nn(-c2ccccc2)nc1C(N)=O | inconclusive: 18.7% | – |
| Cc1c(NC(=O)COC(=O)c2cccn2C)c(=O)n(-c2ccccc2)n1C | inconclusive: 3.67% | – |
| NC(=O)CCn1ccc2ccccc21 | inactive: 1.59% | – |
| C=CCSc1nc(N)c(C#N)c(-c2ccccc2)c1C#N | inconclusive: -6.73% | – |
| O=C(CCN1C(=O)C2C3CCC(C3)C2C1=O)Nc1ccc(Cl)cc1Cl (configuration not stated) | – | inconclusive: 4.47 µM [falling, single point] |
| CCOC(=O)c1csc(NC(=O)c2ccc(N3C(=O)CCC3=O)cc2)n1 | inconclusive: 14.8% | – |
| Cc1cc(C)n(S(=O)(=O)/C=C/c2ccccc2)n1 | – | inconclusive: 14.1 µM [falling, partial curve, poor fit] |
| CN(Cc1ccc(Br)cc1)CC(O)COc1cccc(Br)c1 (configuration not stated) | inconclusive: -13.3% | – |
| Cc1cc(C)nc(NC(=S)Nc2cccc(F)c2)c1 | inconclusive: 3.39% | – |
| O=C(/C=C/c1ccc(Cl)cc1)NC(=S)Nc1ccc(N2CCOCC2)c(Cl)c1 | – | inconclusive: 23.1 µM [falling, partial curve] |
| COc1cccc(C(=O)NN2C(=S)N(c3ccccc3)C(=O)C2CC(N)=O)c1 (configuration not stated) | – | inconclusive: 35.5 µM [rising, single point] |
| CC(=O)Nc1ccc(Nc2cc(-c3ccccc3)nc3ncnn23)cc1 | inconclusive: 6.88% | – |
| Cc1ccc(CC(=O)NCC2CCCCC2)cc1 | inactive: 4.82% | – |
| CC1(C)CC(=O)C2=C(C1)N=C1SCCC(=O)N1C2c1ccccc1 (configuration not stated) | inactive: 1.75% | – |
| c1ccc2nc3ccccc3nc2c1 | inactive: 8.43% | – |
| COc1ccc(C(=O)Nc2cccc(C(C)=O)c2)c(OC)c1OC | inconclusive: -11% | – |
| CCC1CCCCN1Cc1nc2c(c(=O)n(C)c(=O)n2C)n1CCC(C)C (configuration not stated) | inconclusive: 7.8% | – |
| CCOC(=O)CSc1nnc2c(n1)C1(C)CCC2C1(C)C (configuration not stated) | inconclusive: 0.19% | – |
| COc1ccc(C=NNc2ccc(S(=O)(=O)Nc3ccccc3C(=O)O)cc2[N+](=O)[O-])c(OC)c1 | inconclusive: -2.64% | – |
| COc1ccc(CNc2ccc([N+](=O)[O-])cn2)cc1 | inconclusive: 5.12% | – |
| Cc1ccc(C(=O)N(Cc2ccc3c(c2)OCO3)Cc2nc3ccccc3c(=O)[nH]2)cc1 | – | inconclusive: 23.1 µM [falling, partial curve] |

| Structure (SMILES) | activity change, negative = inhibition | Potency |
| --- | --- | --- |
| CCOC(=O)C1(CC2CC2)CCN(C(=O)c2ocnc2C)CC1 | inactive: 8.22% | – |
| Cn1c(C(=O)OCC(=O)NCc2ccc(F)cc2)cc2occc21 | inconclusive: 6.73% | – |
| O=C(NNC(=O)c1ccccc1Cl)c1ccc2c(=O)n3c(nc2c1)CCC3 | inconclusive: -1.22% | – |
| Nc1cc(N)nc(SCC(=O)Nc2ccc3c(c2)OCCCO3)n1 | – | inconclusive: 29.1 µM [falling, partial curve, poor fit] |
| O=C(COC(=O)CSc1ccccc1)Nc1ccc(F)cc1F | inconclusive: 4.07% | – |
| COc1ccc(CCn2c(N)cc(=O)[nH]c2=S)cc1OC | inconclusive: -17.8% | – |
| CCOC(=O)N1CCN(C(=O)c2ccc3c(=O)n(Cc4ccccc4)c(=S)[nH]c3c2)CC1 | inactive: -4.52% | – |
| COc1ccccc1NC(=O)CCn1cnc2ccccc2c1=O | inactive: 3.34% | – |
| CCN(CC)S(=O)(=O)c1ccc(/C=C/C(=O)Nc2ccccc2N2CCOCC2)cc1 | inconclusive: -15.3% | – |
| COc1cc(OC)cc(C(=O)NCc2n[nH]c(=S)n2-c2ccccc2OC)c1 | – | inconclusive: 0.92 µM [falling, full curve] |
| COc1ccc2c(c1OC)C[N+]1([O-])CCc3cc4c(cc3C1C2)OCO4 (configuration not stated) | inactive: 7.54% | – |
| O=C(CN1CCC(O)(c2ccc3c(c2)OCO3)CC1)OC1CCCCC1 | inconclusive: 2.47% | – |
| CCN(CC)c1ccc(Nc2cc3n(c(=O)n2)CCc2cc(OC)c(OC)cc2-3)cc1 | – | active: 11.2 µM |
| COC(=O)CNC(=O)C1CCCN1C(=O)CNC(=O)OCc1ccccc1 (stereo not drawn) (Cbz-Gly-[ξP]-Gly-OMe) | inconclusive: 8.3% | – |
| Nc1c(N(CCO)C(=O)C2CCCCC2)c(=O)[nH]c(=O)n1Cc1ccccc1 | inconclusive: 18.5% | – |
| O=C(Nc1nnc(-c2ccccn2)o1)c1ccc(Br)cc1 | – | inconclusive: 5.8 µM [falling, single point] |
| CC(NC(=O)c1ccco1)C(=O)N1CCc2ccccc2C1 (configuration not stated) | – | inconclusive: 23.1 µM [falling, partial curve] |
| COc1cc(/C=N/N=C2/C(=O)Nc3ccccc32)cc(OC)c1O | inactive: -12.4% | – |
| COc1ccc2c(=O)c3c(=O)n(Cc4ccco4)c(-c4cc(OC)c(OC)c(OC)c4)nc3oc2c1 | inconclusive: -9.43% | – |
| COc1ccc(OC)c(NC(=O)COC(=O)CNC(=O)c2ccc(OC)c(OC)c2)c1 | – | inconclusive: 5.8 µM [falling, single point] |
| COc1cc(/C=C(/C#N)C(=O)NCc2ccccc2)cc(OC)c1OC | inconclusive: -2.18% | – |

| Structure (SMILES) | activity change, negative = inhibition | Potency |
| --- | --- | --- |
| O=C(O)CN1C(=O)/C(=C\c2ccccc2OCc2ccc(Cl)cc2)SC1=S | inconclusive: 10.9% | – |
| O=C(CCl)Nc1c(C(=O)Nc2ccc3c(c2)OCCO3)oc2ccccc12 | inconclusive: -14.4% | – |
| COc1ccc(-c2cc(C3CCN(Cc4ccc([N+](=O)[O-])cc4)CC3)[nH]n2)cc1 | inactive: 1.86% | – |
| CCCCCCNS(=O)(=O)c1ccc(OC)c(OC)c1 | inactive: -0.223% | – |
| O=C(/C=C/c1ccccc1)NC(=S)NNC(=O)c1ccco1 | – | inconclusive: 29.1 µM [falling, single point] |
| Cc1ccc(CNC(=O)c2cc3c(=O)n(C)c4ccccc4c3n2C)cc1 | inconclusive: 6.24% | – |
| CCCCCCCNC(=O)C1(CC2CC(c3ccc(Cl)cc3)=NO2)CCN(C(=O)OC(C)(C)C)CC1 (configuration not stated) | inconclusive: 7.82% | – |
| CC(C)c1ccc(NC(=O)CSC2=Nc3ccccc3C3=NC(CC(=O)NCc4ccc(F)cc4)C(=O)N23)cc1 (configuration not stated) | inconclusive: 0.78% | – |
| Cc1cc(C(=O)NP(=O)(N2CCOCC2)N2CCOCC2)c(C)n1-c1ccc(Br)cc1 | inconclusive: -21.1% | – |
| CN(C(=O)c1ccc2c(=O)n3c(nc2c1)CCCCC3)c1cccc(Cl)c1 | inactive: 12.7% | – |
| COc1ccc(C2=NN(C(=O)CSc3nnc(C)c(=O)n3N)C(c3ccco3)C2)cc1 (configuration not stated) | inconclusive: 0.613% | – |
| CN(C)S(=O)(=O)N1CCN(c2ccc(Cl)cc2)CC1 | inconclusive: 9.97% | – |
| CCc1ccc(S(=O)(=O)c2nnn3c2nc(NCCNC(C)=O)c2ccccc23)cc1 | inactive: 7.07% | – |
| Cc1ccc(CNC(=O)C2CCC(CNS(=O)(=O)c3cccc4cccnc34)CC2)cc1 (configuration not stated) | inactive: -11% | – |
| CC[n+]1c(/C=C/c2cc([N+](=O)[O-])ccc2O)ccc2ccccc21 | inconclusive: -16.5% | – |
| CSc1ccccc1-c1nnc(-c2ccc(Cl)c(Cl)c2)o1 | inconclusive: 1.05% | – |
| Cc1oc(-c2ccccc2)cc1C(=O)Nc1ccc2ccccc2c1 | – | inconclusive: 12.6 µM [rising, partial curve, poor fit] |
| O=C(N/N=C/c1ccc([N+](=O)[O-])cc1)c1ccc(NS(=O)(=O)c2cccs2)cc1 | – | inconclusive: 20.6 µM [falling, partial curve] |
| CSc1ccc(NC(=O)Nc2cccn(Cc3ccccc3)c2=O)cc1 | – | inconclusive: 17.8 µM [falling, partial curve] |
